No constants are given. Whether binding was seen depends on the method and setting. For part of these data: In cells and extracts the contact can be indirect. Some binding calls cover weakened binding; strength is not graded here.
Experiments:
[1] = molecular target: CD98 (cluster of differentiation 98) (human) (UniProt Q01650); test: co-IP and localisation
[2] = molecular target: CD98 (cluster of differentiation 98) (human) (UniProt Q01650); test: co-IP and localisation, HUVE cells
[3] = molecular target: CD98 (cluster of differentiation 98) (human) (UniProt Q01650); test: co-IP from HUVE cells, IP anti-CD98
[4] = molecular target: CD98 (cluster of differentiation 98) (human) (UniProt Q01650); test: co-IP from HUVE cell lysate, IP anti-CD98
[5] = molecular target: CD98 (cluster of differentiation 98) (human) (UniProt Q01650); test: co-IP from HUVE cell lysate, IP anti-CD98, immunoblot
[6] = molecular target: CD98 (cluster of differentiation 98) (human) (UniProt Q01650); test: co-IP with deletion construct
[7] = molecular target: CD98 (cluster of differentiation 98) (human) (UniProt Q01650); test: immunoprecipitation assay with deletion construct
β1-integrin (human) [8] = molecular target: β1-integrin (human) (UniProt P05556); test: co-IP and localisation
[9] = molecular target: TRPV4 (transient receptor potential vanilloid 4) (human) (UniProt Q9HBA0); test: summary of the example's co-IP data
β1-integrin (human) [10] = molecular target: β1-integrin (human) (UniProt P05556); test: summary of the example's co-IP data
[11] = molecular target: TRPV4 (transient receptor potential vanilloid 4) (human) (UniProt Q9HBA0); test: co-IP from HUVE cells, IP anti-TRPV4
[12] = molecular target: TRPV4 (transient receptor potential vanilloid 4) (human) (UniProt Q9HBA0); test: co-IP from HUVE cell lysate, IP anti-TRPV4, immunoblot

Amino acid sequences for entries named in this document (tags omitted). A change or cut given only in a name is not applied to a line headed by its entry.
UniProt Q01650: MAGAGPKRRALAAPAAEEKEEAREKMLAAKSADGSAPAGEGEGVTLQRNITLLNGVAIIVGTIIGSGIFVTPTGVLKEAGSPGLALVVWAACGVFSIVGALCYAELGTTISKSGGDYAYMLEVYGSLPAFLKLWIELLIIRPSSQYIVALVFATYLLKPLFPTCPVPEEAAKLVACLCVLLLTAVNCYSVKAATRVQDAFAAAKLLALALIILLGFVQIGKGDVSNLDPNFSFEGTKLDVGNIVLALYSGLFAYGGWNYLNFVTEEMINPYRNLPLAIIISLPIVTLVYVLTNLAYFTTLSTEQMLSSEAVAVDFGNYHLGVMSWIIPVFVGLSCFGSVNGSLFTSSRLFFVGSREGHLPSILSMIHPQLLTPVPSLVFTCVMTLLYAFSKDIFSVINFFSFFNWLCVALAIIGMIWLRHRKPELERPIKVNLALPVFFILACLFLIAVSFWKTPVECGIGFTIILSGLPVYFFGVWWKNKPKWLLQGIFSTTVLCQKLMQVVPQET
UniProt P05556: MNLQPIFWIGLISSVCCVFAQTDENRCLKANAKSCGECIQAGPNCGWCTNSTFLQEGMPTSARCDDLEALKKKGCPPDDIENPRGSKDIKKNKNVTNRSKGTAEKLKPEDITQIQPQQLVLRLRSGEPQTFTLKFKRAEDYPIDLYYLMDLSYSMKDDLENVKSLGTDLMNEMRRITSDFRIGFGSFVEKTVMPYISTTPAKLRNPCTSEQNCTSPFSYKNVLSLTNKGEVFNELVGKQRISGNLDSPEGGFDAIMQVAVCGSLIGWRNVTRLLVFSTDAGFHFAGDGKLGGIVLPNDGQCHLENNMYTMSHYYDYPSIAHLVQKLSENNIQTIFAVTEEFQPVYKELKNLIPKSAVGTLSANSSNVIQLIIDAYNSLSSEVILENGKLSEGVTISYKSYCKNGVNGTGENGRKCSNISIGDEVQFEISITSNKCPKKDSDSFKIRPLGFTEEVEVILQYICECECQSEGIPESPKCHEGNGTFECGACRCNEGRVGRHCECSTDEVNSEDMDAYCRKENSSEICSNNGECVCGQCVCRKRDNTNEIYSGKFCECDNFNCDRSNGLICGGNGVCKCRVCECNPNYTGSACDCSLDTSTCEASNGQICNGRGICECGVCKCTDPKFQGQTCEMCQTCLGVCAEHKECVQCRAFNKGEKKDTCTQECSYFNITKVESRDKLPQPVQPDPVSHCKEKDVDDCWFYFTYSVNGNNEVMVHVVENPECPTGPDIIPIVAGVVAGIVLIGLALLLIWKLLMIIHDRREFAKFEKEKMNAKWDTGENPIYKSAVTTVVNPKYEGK
UniProt Q9HBA0: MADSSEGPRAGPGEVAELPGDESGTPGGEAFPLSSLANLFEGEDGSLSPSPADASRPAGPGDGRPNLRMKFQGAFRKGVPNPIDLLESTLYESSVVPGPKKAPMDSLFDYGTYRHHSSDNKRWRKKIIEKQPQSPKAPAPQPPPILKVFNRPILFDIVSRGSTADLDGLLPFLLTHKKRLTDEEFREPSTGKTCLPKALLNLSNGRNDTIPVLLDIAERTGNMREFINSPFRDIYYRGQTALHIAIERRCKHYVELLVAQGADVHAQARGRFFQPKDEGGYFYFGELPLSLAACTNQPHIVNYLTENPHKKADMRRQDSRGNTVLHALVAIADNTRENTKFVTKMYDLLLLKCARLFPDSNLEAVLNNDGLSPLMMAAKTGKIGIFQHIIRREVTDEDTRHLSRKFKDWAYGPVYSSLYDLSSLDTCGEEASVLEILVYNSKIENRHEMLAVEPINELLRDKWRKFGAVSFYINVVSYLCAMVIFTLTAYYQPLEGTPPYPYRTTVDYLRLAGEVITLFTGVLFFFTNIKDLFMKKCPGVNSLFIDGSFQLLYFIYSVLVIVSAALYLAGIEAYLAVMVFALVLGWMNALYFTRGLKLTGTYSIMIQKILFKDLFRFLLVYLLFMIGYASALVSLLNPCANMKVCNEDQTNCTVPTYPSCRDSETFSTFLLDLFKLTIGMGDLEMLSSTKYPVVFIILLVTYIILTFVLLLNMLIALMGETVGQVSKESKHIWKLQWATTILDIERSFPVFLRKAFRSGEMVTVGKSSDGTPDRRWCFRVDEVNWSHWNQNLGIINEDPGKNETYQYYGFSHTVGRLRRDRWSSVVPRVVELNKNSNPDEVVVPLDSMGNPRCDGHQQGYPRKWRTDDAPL

Measured: binding

TRPV4 (transient receptor potential vanilloid 4) (from UniProt Q9HBA0 1-871)
binds: [1] | [2] | [3] | [4] | [5]

TRPV4 with the transmembrane and C-terminal regions deleted (from UniProt Q9HBA0 1-469)
binds: [6] | [7]

CD98 (cluster of differentiation 98) (from UniProt Q01650 1-507)
binds: β1-integrin (human) [8] | [9] | β1-integrin (human) [10] | [11] | [12]

Reference: patent publication US20190002527A1
